From US20110135657A1
These are yes or no findings as the source states them, for the method shown. Some binding calls cover weakened binding; strength is not graded here.

Chains of the proteins cited; added tags and fusions are not shown. Lines headed by an entry give the natural chain unless they say otherwise; changes in a name come on top.
UniProt Q86Z14: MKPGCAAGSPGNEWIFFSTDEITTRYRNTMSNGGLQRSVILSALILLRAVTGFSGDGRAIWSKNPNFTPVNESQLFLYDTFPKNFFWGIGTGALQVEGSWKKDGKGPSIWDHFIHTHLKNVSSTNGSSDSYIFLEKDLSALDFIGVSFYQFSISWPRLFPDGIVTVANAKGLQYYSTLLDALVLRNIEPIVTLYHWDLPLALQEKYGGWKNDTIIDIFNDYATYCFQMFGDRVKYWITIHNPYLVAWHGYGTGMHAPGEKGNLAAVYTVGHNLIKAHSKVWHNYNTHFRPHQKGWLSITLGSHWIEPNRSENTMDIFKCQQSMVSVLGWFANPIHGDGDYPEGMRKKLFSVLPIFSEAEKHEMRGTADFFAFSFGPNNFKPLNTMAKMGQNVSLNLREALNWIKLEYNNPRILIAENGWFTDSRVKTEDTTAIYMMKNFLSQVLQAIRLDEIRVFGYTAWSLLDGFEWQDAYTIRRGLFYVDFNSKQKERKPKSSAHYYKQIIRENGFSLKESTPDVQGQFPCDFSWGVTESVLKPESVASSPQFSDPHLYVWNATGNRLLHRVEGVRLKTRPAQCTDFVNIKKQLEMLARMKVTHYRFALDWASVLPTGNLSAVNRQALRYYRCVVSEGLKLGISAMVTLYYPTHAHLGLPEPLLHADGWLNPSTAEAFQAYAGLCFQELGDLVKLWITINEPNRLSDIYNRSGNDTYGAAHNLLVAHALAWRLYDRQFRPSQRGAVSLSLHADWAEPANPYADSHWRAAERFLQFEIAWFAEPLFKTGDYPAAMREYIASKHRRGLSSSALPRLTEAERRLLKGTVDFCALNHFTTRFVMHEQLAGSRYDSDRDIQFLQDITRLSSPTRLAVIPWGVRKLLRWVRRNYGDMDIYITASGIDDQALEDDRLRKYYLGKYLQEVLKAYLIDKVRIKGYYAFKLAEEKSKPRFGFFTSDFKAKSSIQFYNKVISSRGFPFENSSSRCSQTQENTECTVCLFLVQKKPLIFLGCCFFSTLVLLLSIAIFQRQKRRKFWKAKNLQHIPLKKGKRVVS

Target: soluble human β-Klotho (Biacore, Example 8) (human) (UniProt Q86Z14)
Assay: Biacore competition binning; test antibody injected over soluble receptor captured on immobilized 24H11, 17D8 or 1A2.1

binding: binds
B1: 18B11.1 (antibody, human IgG2, kappa, V domains shown)
VH: EVQLVESGGGLVKPGGSLRLSCAASGFTFSDAWMSWVRQAPGKGLEWVGRIKSKTDGGTTDYAAPVKGRFTISRDDSKNTLYLQMNSLKTEDTAVYFCTSTYSSGWYVWDYYGMDVWGQGTTVTVSS
VL: DIVMTQSPLSLPVTPGEPASISCRSSQSLLYYNGFTYLDWFLQKPGQSPHLLIYLGSNRASGVPDRFSGSVSGTDFTLKISRVEAEDVGVYYCMQSLQTPFTFGPGTKVDIKR
